PubChem BioAssay AID1259405 – NCATS, 2018

- Screen: 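Knock-downs that lift recombinant protein yield in hamster ovary cells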 (primary screen)
- Cells: Chinese hamster CHO-K1 ovary cells with stable secreted eGFP expression
- Knock-down reagent: single siRNA against mouse genes, 0.8 pmol siRNA per well (2 µl of 400 nM stock)
- Duration: 3 days
- Detection: 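Per-well intracellular GFP measured by laser scanning cytometry, plus viability from ATP luminescence, each relative to plate median of non-targeting control wells, in %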
- Direction: GFP, % of control: higher = more GFP per well, higher productivity; viability (ATP), % of control: higher = more viable cells (more ATP)
- Hit rule: 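a knock-down is called active if GFP reaches 120% or more of non-targeting control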
Shown is one part, drawn at random, of about 50,000 reagents. In the full data, about 4,000 (8%) got an active call. 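Mouse siRNA library applied to hamster cells; one well for each siRNA.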 Reagents against one gene are numbered here.

Knock-down of Snx29 #1 gave: GFP, % of control 84.2; viability (ATP), % of control 55.3; inactive.
Depletion of Snx29 #2 gave: GFP, % of control 103; viability (ATP), % of control 97.5; inactive.
Snx29 #3 gave GFP, % of control 106; viability (ATP), % of control 136; inactive.
Depletion of Mei1 #1 gave: GFP, % of control 109; viability (ATP), % of control 60.8; inactive.
Mei1 #2 showed GFP, % of control 91.7; viability (ATP), % of control 84.4; inactive.
Silencing of Mei1 #3 gave: GFP, % of control 85.7; viability (ATP), % of control 80.9; inactive.
For Or1l8 #1, the values are GFP, % of control 142; viability (ATP), % of control 101; active.
Knock-down of Or1l8 #2 came out at: GFP, % of control 76.7; viability (ATP), % of control 68.1; inactive.
With knock-down of Or1l8 #3 the results were GFP, % of control 135; viability (ATP), % of control 92.1; active.
Gc #1 showed GFP, % of control 112; viability (ATP), % of control 94.6; inactive.
Against Gc #2, the entry reads GFP, % of control 74.8; viability (ATP), % of control 39.8; inactive.
For Gc #3, the values are GFP, % of control 105; viability (ATP), % of control 91.5; inactive.
With knock-down of Rbmx2 #1 the results were GFP, % of control 94; viability (ATP), % of control 66.6; inactive.
After knock-down of Rbmx2 #2, the screen gave GFP, % of control 113; viability (ATP), % of control 84.6; inactive.
For Rbmx2 #3, the values are GFP, % of control 71.5; viability (ATP), % of control 70.2; inactive.
Depletion of Tfrc #1 came out at: GFP, % of control 98.1; viability (ATP), % of control 73.8; inactive.
Silencing of Tfrc #2 resulted in: GFP, % of control 72.7; viability (ATP), % of control 69.8; inactive.
For Tfrc #3, the entry reads GFP, % of control 60.1; viability (ATP), % of control 58.6; inactive.
Knock-down of Mlx #1 resulted in: GFP, % of control 89.9; viability (ATP), % of control 93.5; inactive.
Mlx #2 showed GFP, % of control 57.3; viability (ATP), % of control 74; inactive.
After knock-down of Mlx #3 the results were GFP, % of control 74.9; viability (ATP), % of control 83.1; inactive.
For Or51f23b #1, the values are GFP, % of control 68.8; viability (ATP), % of control 66.4; inactive.
Knock-down of Or51f23b #2 resulted in: GFP, % of control 84.3; viability (ATP), % of control 49.8; inactive.
Knock-down of Or51f23b #3 gave: GFP, % of control 63.1; viability (ATP), % of control 83.8; inactive.
With knock-down of Amer3 #1 the results were GFP, % of control 64.2; viability (ATP), % of control 65.2; inactive.
Knock-down of Amer3 #2 gave: GFP, % of control 112; viability (ATP), % of control 68; inactive.
Silencing of Amer3 #3 resulted in: GFP, % of control 68.2; viability (ATP), % of control 80.6; inactive.
With knock-down of Ccdc88a #1, the record shows GFP, % of control 74.6; viability (ATP), % of control 58.9; inactive.
With knock-down of Ccdc88a #2, the record shows GFP, % of control 66.4; viability (ATP), % of control 73.5; inactive.
Silencing of Ccdc88a #3 resulted in: GFP, % of control 90; viability (ATP), % of control 111; inactive.
For Got1 #1, the entry reads GFP, % of control 71.5; viability (ATP), % of control 74.3; inactive.
Against Got1 #2 the deposit lists GFP, % of control 88.8; viability (ATP), % of control 94; inactive.
For Got1 #3, the entry reads GFP, % of control 101; viability (ATP), % of control 84.9; inactive.
Asb11 #1 showed GFP, % of control 13.4; viability (ATP), % of control 8.86; inactive.
Asb11 #2 scored GFP, % of control 68.2; viability (ATP), % of control 74; inactive.
Depletion of Asb11 #3 came out at: GFP, % of control 52.2; viability (ATP), % of control 72.1; inactive.
Cd33 #1 scored GFP, % of control 57.5; viability (ATP), % of control 62.3; inactive.
For Cd33 #2 the deposit lists GFP, % of control 76.3; viability (ATP), % of control 88.3; inactive.
Against Cd33 #3 the deposit lists GFP, % of control 75; viability (ATP), % of control 49.6; inactive.
Qsox2 #1 gave GFP, % of control 84; viability (ATP), % of control 72.9; inactive.
Knock-down of Qsox2 #2 gave: GFP, % of control 93.2; viability (ATP), % of control 76.3; inactive.
With knock-down of Qsox2 #3, the screen gave GFP, % of control 98.2; viability (ATP), % of control 68.2; inactive.

Records listed so far called active, once more:
Or1l8 #1 | GFP, % of control = 142; viability (ATP), % of control = 101; activity call = active
Or1l8 #3 | GFP, % of control = 135; viability (ATP), % of control = 92.1; activity call = active
